Measurements published in PubChem BioAssay AID504465 (National Center for Advancing Translational Sciences (NCATS), 2011).
Screen size: about 2,100 compounds; about 210 (10%) were called active. The shares of active, inactive and inconclusive entries below differ from those in the screen. Calls follow the shape of the dose curve; as a rule, active = well fitted inhibition curve with a large enough effect; inconclusive = small, poorly fitted or top-dose-only effect, or effect the other way; inactive = no such curve, though single readings can be large or run the other way. Potencies beside an inconclusive call are fits to weak or partial responses and may not hold up.

Experiment: IN Cell qHTS Assay for Inhibitors of the mTORC1 Signaling Pathway in MEF (Tsc2-/-, p53-/-) Cells: Sytravon; also: nearly all actives have a fitted effect of over 60% in size
Conditions: phospho-rpS6 immunofluorescence, 24 h; series mostly up to 38.3 µM
Procedure, shortened: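 Immunofluorescence of rpS6 phosphorylation (Ser235/236) in mouse embryonic fibroblasts lacking Tsc2 and p53, after 24 h compound exposure; Hoechst-normalized signal imaged, each well scored as % active cells relative to rapamycin (7.5 nM) and DMSO controls.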
Potency is read from the fitted curve at half-maximal effect.

Compound | Potency
CCOC(=O)c1ccc(NC(=O)CC2Sc3ccc(C(F)(F)F)cc3NC2=O)cc1 (configuration not stated) | inconclusive: 26.1 µM [falling, single point]
Nc1nc(SCC(=O)Nc2cccc(C(F)(F)F)c2)n[nH]1 | inconclusive: 26.1 µM [falling, single point]
COc1ccccc1N(CC(=O)Nc1ccc2c(c1)OCO2)S(=O)(=O)c1ccc(C)cc1 | inconclusive: 9.27 µM [falling, partial curve, poor fit]
CC(=O)c1cccc(Nc2nc(-c3cccc(C)c3)nc3ccccc23)c1 | inconclusive: 16.5 µM [falling, partial curve, poor fit]
COc1cccc(NC(=O)CCN2CCN(c3ccccc3)CC2)c1 | inconclusive: 23.3 µM [falling, single point]
CCc1ccc(NC(=O)CSc2ccc(-c3ccccn3)nn2)cc1 | inconclusive: 13.1 µM [falling, partial curve]
CC(C)(C)c1ccc(Oc2nc3ccccn3c(=O)c2/C=C(\C#N)c2nc3ccccc3[nH]2)cc1 | inactive
COc1ccc(N2CCN(c3c4c(nc5nncn35)CCC4)CC2)cc1 | inconclusive: 16.5 µM [falling, partial curve, poor fit]
Cc1ccc(Cn2ccn(CC(=O)Nc3ccccc3C(F)(F)F)c(=O)c2=O)cc1 | inconclusive: 0.208 µM [falling, full curve, poor fit]
COc1ccc(N2CC(c3nc(-c4cc(OC)c(OC)c(OC)c4)no3)CC2=O)cc1Cl (configuration not stated) | inactive
CCC(=O)N1CCCc2cc(S(=O)(=O)N3CCC(C(=O)Nc4ccc(F)c(F)c4)CC3)ccc21 | inconclusive: 18.5 µM [falling, single point]
CCOc1ccc(CCNCc2c(C(=O)O)n(Cc3ccc(C)cc3)c3cc(OC)ccc23)cc1 | inconclusive: 11.7 µM [falling, partial curve, poor fit]
COc1ccc(C(=O)N2CCN(C(=O)COc3ccc(Br)cc3)CC2)cc1OC | inconclusive: 0.0037 µM [falling, full curve, poor fit]
c1ccc(N2CCN(c3ncnc4[nH]ncc34)CC2)cc1 | inconclusive: 23.3 µM [falling, single point]
Cc1cc(C)cc(OCC(=O)Nc2ccc(-c3nc4ncccc4o3)cc2C)c1 | inactive
CC(C)OCCCN1C(=O)c2[nH]nc(-c3ccccc3O)c2C1c1cccc(OCc2ccccc2)c1 (configuration not stated) | inconclusive: 26.1 µM [falling, single point]
Cc1ccc(C(=O)CC2(O)C(=O)N(Cc3ccccc3)c3ccccc32)c(C)c1 (configuration not stated) | inconclusive: 18.5 µM [falling, single point]

Two neighbouring compounds already listed, for reference:
Compound | Potency
c1ccc(N2CCN(c3ncnc4[nH]ncc34)CC2)cc1 | inconclusive: 23.3 µM [falling, single point]
Cc1cc(C)cc(OCC(=O)Nc2ccc(-c3nc4ncccc4o3)cc2C)c1 | inactive
